We go through 2 molecules from publication PMC7102954, “A crucial RNA-binding lysine residue in the Nab3 RRM domain undergoes SET1 and SET3-responsive methylation”.

Protein sequences, listed by entry. Tags and fused reporters are not part of them.
UniProt Q00416: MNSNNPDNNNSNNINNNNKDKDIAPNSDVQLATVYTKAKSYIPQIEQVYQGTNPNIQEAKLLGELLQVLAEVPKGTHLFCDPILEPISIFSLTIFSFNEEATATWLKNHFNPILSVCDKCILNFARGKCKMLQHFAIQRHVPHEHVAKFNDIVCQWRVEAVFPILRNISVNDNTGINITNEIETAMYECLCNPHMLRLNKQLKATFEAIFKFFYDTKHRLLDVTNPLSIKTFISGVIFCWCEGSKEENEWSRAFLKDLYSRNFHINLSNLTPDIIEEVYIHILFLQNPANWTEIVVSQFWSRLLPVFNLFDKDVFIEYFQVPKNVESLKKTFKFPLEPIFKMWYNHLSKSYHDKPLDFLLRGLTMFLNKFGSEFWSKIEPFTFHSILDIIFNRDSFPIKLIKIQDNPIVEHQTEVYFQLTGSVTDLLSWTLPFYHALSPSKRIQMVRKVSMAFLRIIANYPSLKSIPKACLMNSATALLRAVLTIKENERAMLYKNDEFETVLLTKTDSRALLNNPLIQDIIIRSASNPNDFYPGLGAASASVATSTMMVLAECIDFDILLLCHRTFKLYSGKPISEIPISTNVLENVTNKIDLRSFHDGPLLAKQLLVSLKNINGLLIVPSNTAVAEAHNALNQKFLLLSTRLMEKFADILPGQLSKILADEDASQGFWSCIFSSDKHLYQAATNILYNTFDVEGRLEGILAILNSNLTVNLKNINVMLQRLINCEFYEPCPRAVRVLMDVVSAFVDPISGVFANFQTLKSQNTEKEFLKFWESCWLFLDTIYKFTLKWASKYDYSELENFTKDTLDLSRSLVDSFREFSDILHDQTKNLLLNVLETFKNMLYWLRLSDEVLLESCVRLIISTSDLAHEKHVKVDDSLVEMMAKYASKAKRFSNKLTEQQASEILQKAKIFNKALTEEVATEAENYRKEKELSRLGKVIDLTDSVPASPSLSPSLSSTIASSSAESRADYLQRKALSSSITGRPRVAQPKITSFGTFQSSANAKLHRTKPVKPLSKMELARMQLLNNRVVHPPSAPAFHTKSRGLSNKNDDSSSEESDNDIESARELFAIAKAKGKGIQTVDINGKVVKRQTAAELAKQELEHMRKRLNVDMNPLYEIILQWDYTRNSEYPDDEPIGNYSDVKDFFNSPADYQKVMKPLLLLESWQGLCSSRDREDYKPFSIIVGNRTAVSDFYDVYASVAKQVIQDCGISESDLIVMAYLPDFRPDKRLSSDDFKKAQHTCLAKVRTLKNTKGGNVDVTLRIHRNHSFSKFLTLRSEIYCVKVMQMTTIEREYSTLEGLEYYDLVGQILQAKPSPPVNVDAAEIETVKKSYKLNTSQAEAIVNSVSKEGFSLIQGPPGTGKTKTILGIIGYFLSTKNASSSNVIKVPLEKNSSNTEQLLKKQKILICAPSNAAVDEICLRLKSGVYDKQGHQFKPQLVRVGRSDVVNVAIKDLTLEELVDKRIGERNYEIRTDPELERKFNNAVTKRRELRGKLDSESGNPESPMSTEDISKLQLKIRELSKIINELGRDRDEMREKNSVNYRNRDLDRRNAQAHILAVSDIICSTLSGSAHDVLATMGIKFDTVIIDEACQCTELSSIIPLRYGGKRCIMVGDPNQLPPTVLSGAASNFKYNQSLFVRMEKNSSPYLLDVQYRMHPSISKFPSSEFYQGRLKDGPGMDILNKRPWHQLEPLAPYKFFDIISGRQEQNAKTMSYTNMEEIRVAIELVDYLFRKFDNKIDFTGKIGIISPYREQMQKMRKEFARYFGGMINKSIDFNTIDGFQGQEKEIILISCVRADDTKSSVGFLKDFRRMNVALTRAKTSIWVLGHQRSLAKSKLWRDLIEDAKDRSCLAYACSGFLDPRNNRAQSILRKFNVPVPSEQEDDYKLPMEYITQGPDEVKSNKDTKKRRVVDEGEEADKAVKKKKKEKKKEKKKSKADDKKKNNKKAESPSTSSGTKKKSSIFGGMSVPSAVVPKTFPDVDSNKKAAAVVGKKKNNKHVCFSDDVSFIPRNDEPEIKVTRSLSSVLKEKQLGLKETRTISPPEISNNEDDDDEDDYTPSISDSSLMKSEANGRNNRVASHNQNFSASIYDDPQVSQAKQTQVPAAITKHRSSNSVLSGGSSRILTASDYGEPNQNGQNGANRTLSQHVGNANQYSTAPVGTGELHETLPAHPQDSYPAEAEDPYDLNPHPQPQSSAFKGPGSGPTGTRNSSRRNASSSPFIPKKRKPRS

These are yes or no findings as the source states them, for the method shown. Binding seen in cells or lysates may run through a third protein. A yes stands for co-enrichment or nearness to the bait. Other partners may have been found.

This assay concerns the target T1, Nab3-TAP (S. cerevisiae) (UniProt P38996).
T1 sequence: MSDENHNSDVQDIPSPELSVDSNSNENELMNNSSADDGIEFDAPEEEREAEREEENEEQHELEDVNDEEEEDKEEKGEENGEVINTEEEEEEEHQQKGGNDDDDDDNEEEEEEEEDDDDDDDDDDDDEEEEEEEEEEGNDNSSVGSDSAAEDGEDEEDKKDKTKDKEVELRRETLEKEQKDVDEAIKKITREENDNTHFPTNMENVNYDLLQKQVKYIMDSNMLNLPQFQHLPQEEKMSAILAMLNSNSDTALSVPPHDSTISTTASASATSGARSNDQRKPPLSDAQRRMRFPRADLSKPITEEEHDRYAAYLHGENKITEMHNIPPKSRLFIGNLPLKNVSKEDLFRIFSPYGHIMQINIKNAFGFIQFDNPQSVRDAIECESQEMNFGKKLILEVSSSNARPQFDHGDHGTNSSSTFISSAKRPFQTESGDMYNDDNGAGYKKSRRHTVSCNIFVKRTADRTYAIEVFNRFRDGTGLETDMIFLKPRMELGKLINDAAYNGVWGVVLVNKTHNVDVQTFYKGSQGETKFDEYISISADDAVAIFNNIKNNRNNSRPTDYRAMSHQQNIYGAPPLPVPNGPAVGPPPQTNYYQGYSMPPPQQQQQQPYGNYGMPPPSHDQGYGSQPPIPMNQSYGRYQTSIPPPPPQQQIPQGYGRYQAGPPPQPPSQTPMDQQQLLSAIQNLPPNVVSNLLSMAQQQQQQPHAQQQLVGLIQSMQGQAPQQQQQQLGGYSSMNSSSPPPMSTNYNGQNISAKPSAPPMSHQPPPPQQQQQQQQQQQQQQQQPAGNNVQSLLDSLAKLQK
Briefly: affinity purification with mass spectrometry; two-step TAP purification of Nab3-TAP from yeast lysate (IgG Sepharose, TEV elution; calmodulin Sepharose, EGTA elution); Coomassie-stained SDS-PAGE gel and LC-MS/MS of the purified complex.

Sen1 (from UniProt Q00416 1-2231): the binding entry was “binds”.

B1: Nrd1 (protein, UniProt P53617 1-575)
chain: MQQDDDFQNFVATLESFKDLKSGISGSRIKKLTTYALDHIDIESKIISLIIDYSRLCPDSHKLGSLYIIDSIGRAYLDETRSNSNSSSNKPGTCAHAINTLGEVIQELLSDAIAKSNQDHKEKIRMLLDIWDRSGLFQKSYLNAIRSKCFAMDISNNTANTASQQLSLDPKQRSKQILSNLKKSPPLNLNISLPTDLTSTDPAKQQAALFQVIAALQKHFKTLPSHTSVGTVAPPQAHTITEYGSRRERERERERYNSRRNRSRSPPAPFSQPSTGRKDRYPSVAQDQYSIGAPNTTFGTNNHHLYPDELNVSNNPHYRPKPVSYDSTLPPDHIKVYSRTLFIGGVPLNMKEWDLANVLKPFAEVQSVILNNSRKHAFVKVYSRHEAENVLQNFNKDGALPLRTRWGVGFGPRDCCDYQHGYSIIPMHRLTDADKKWSVSAQWGGTSGQPLVTGIVFEEPDIIVGEGVSSKAISQKMPTDSGRNGPRSGKPNKSGSISSISPVPYGNAPLASPPPQQYVQPMMQQPYGYAPNQPLPSQGPAAAAPPVPQQQFDPTAQLNSLMNMLNQQQQQQQQS
As for B1, the binding result is recorded as “binds”.
